The target of this test is SFB-DDX11 (from pIRES2-SFB-DDX11) (human) (UniProt Q96FC9). The experiment in a line: affinity purification with mass spectrometry; tandem affinity purification of SFB-DDX11 from transfected NOZ cells (72 h), NETN lysis buffer; Flag M2 beads, elution with Flag peptide, then S protein agarose; SDS-PAGE, silver stain, bands excised for LC-MS/MS; SFB-vector as control.

Chains of the proteins cited; added tags and fusions are not shown.
UniProt P09874: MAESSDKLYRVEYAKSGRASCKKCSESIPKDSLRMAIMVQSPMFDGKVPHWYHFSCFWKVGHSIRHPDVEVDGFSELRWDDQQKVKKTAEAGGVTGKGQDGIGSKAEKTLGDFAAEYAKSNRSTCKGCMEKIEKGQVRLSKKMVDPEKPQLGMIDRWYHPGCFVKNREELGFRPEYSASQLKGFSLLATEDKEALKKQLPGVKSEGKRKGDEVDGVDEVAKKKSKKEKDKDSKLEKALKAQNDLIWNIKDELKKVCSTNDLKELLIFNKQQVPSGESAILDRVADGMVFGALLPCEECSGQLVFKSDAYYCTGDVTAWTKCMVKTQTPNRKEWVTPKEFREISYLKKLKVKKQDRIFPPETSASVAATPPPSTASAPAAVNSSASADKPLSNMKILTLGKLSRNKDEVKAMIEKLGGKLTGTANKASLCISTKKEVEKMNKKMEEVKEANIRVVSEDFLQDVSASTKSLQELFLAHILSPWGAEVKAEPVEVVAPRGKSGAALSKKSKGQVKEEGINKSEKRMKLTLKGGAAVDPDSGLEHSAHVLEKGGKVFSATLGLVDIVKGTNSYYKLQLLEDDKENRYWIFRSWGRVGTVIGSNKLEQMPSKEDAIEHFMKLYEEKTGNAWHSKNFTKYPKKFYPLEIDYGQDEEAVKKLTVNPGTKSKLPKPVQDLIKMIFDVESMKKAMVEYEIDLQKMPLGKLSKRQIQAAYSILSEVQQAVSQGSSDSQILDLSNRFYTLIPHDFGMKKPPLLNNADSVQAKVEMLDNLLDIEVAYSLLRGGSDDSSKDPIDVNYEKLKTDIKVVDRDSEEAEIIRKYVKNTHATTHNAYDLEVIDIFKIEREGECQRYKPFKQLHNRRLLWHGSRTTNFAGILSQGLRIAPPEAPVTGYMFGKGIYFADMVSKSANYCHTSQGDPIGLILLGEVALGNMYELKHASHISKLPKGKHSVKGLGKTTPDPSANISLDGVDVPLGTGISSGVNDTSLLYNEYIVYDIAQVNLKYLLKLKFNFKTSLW

Results are given in words; binding and its absence hold for the method and conditions named. In cells and extracts the contact can be indirect. Here binding means that the protein was enriched with, or labelled near, the bait; the list need not be complete.

As to “PARP1 (endogenous) (from UniProt P09874 1-1014)”, the binding result was “binds”.

The record behind these values is paper PMC13191460.
